## Screening data

The results are deposited in PubChem (AID504749; NCATS, 2011).

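A panel of P. falciparum strains inside erythrocytes is exposed to compounds for three days, then a DNA-binding dye reports the amount of parasite DNA. Each compound was titrated across a series from about 0.000037 to 29 µM. The number is the fitted AC50, the concentration giving a half-maximal change in signal; a lower value means higher potency, whether the curve shows a decrease or an increase. Calls follow the curve class and fit quality: every row here is inconclusive, covering signal-raising curves and weak, poorly fitted, partial or highest-dose-only inhibition curves.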

Values are in µM. All entries here are filed as inconclusive. These entries are mostly ones the record files as inconclusive; other results of the assay are not listed here. Potencies fitted to partial, single-point or poorly fitting curves are rough. The first word of each remark tells which way the curve ran; it can be opposite to the aim of the assay.

| # | SMILES | setting | potency (µM) | curve as filed |
|---|---|---|---|---|
| 1 | `OCc1ccccc1O` | PAD | 19.95 | activator, single point |
| 2 | `Cn1c(=O)c2[nH]cnc2n(C)c1=O` | PAD | 12.59 | inhibitor, single point |
| 3 | `O=C1c2c(O)cccc2Cc2cccc(O)c21` | CP291 | 8.492 | inhibitor, partial curve |
| 4 | `CC(/C=C/C=C(\C)C(=O)O[C@@H]1O[C@H](CO[C@@H]2O[C@H](CO)[C@@H](O)[C@H](O)[C@H]2O)[C@@H](O)[C@H](O)[C@H]1O)=C\C=C\C=C(C)\C=C\C=C(/C)C(=O)O[C@@H]1O[C@H](CO[C@@H]2O[C@H](CO)[C@@H](O)[C@H](O)[C@H]2O)[C@@H](O)[C@H](O)[C@H]1O` | DIV14 | 15.1 | inhibitor, partial curve, poor fit |
| 5 | `CCOC(=O)c1ccccc1O` | CP250 | 1.259 | inhibitor, single point |
| 6 | `COc1cc2c(cc1OC)C1CC(=O)C(CC(C)C)CN1CC2` (centres unmarked) | W2 | 6.012 | inhibitor, partial curve, poor fit |
| 7 | `c1ccc(C2(N3CCCC3)CCCCC2)cc1` | CP203 | 19.01 | inhibitor, single point |
| 8 | `CC(C)C(NC(=O)C(CC(=O)O)NC(=O)C(CCCCN)NC(=O)C(N)CCCN=C(N)N)C(=O)NC(Cc1ccc(O)cc1)C(=O)O` (centres unmarked) | CP260 | 10 | inhibitor, single point |
| 9 | `CCOC(=O)c1cnc2c(cnn2CC)c1NN=C(C)C` | CP286 | 17.78 | inhibitor, single point |
| 10 | `CCOC(=O)c1cnc2c(cnn2CC)c1NN=C(C)C` | W2 | 19.01 | inhibitor, single point |
| 11 | `Cc1cccc(N(C)C(=S)Oc2ccc3ccccc3c2)c1` | CP266 | 0.5725 | inhibitor, partial curve, poor fit |
| 12 | `CN1c2c(nc(N)[nH]c2=O)NCC1CNc1ccc(C(=O)NC(CCC(=O)O)C(=O)O)cc1` (centres unmarked) | TAB113 | 3.981 | inhibitor, single point |
| 13 | `C[C@H]1[C@@H](OC(=O)CCC(=O)O)OC2OC3(C)CC[C@H]4[C@H](C)CC[C@@H]1[C@@]24OO3` (some centres unmarked) | PC49 | 0.0005 | inhibitor, full curve, poor fit |
| 14 | `CC(C)(Oc1ccc(C2CCCc3ccccc32)cc1)C(=O)O` (centres unmarked) | CP266 | 4.776 | inhibitor, single point |
| 15 | `CCCCCCCCCCCCCCCCC(C(=O)O)C(O)(CC(=O)O)C(=O)O` (centres unmarked) | W2 | 0.0013 | inhibitor |
| 16 | `CCC(C(=O)O)C1OC(C(C)C(O)C(C)C(=O)C(CC)C2OC3(C=CC(O)C4(CCC(C)(C5CCC(O)(CC)C(C)O5)O4)O3)C(C)CC2C)C(C)CC1C` (centres unmarked) | W2 | 0.0601 | inhibitor, full curve, poor fit |
| 17 | `CC1=C(/C=C/C(C)=C/C=C/C(C)=C/C(=O)Oc2c(C)c(C)c3c(c2C)CC[C@@](C)(CCC[C@H](C)CCC[C@H](C)CCCC(C)C)O3)C(C)(C)CCC1` | CP266 | 3.381 | activator, single point |
| 18 | `S=C1SCN(Cc2ccccc2)CN1Cc1ccccc1` | P93_24 | 3.981 | inhibitor, single point |
| 19 | `CCN(CC)CCCN(c1ccccc1)C1Cc2ccccc2C1` | CP315 | 16.94 | inhibitor, single point |
| 20 | `CCN(CC)CCCN(c1ccccc1)C1Cc2ccccc2C1` | CP262 | 1.694 | inhibitor, single point |
| 21 | `O=C(O)[C@@H](O)[C@@H](O)[C@H](O)C(=O)CO` | CP315 | 2.133 | inhibitor, single point |
| 22 | `CC(CCc1ccc(O)cc1)NCC(O)c1ccc(O)cc1` (centres unmarked) | DIV14 | 19.01 | inhibitor, single point |
| 23 | `CCOC(=O)CC(SP(=S)(OC)OC)C(=O)OCC` (centres unmarked) | CP266 | 0.0169 | inhibitor, full curve, poor fit |
| 24 | `O=C(O)/C=C/C(=O)Nc1ccc(S(=O)(=O)Nc2nccs2)cc1` | CP297 | 0.3793 | inhibitor, partial curve, poor fit |
| 25 | `Cn1cc(C(=O)[C@@H]2CCc3[nH]cnc3C2)c2ccccc21` | 7G8 | 7.08 | inhibitor, partial curve, poor fit |
| 26 | `COc1ccc(C2(C#N)CCC(C(=O)O)CC2)cc1OC1CCCC1` (centres unmarked) | CP266 | 21.33 | inhibitor, single point |
| 27 | `CN1C2CCC1CC(OC(=O)c1c[nH]c3ccccc13)C2` (centres unmarked) | PC15 | 11.22 | inhibitor, single point |
| 28 | `OCC(O)CO` | CP262 | 16.94 | activator, partial curve, poor fit |

Once more, the final 2:

{"smiles": "CN1C2CCC1CC(OC(=O)c1c[nH]c3ccccc13)C2", "stereo": "centres unmarked", "setting": "PC15", "potency (µM)": "11.22", "curve as filed": "inhibitor, single point"}
{"smiles": "OCC(O)CO", "setting": "CP262", "potency (µM)": "16.94", "curve as filed": "activator, partial curve, poor fit"}